Data as given in patent US20260022186A1.
Changes are numbered by the printed parent chain. Results are given in words; binding and its absence hold for the method and conditions named. Some entries that bind do so weakly or less than the wild type.

How the values were obtained:
[1] = molecular target: T1, human NT5E expressed on MDA-MB-231 cells (human) (UniProt P21589); assay: flow cytometry on MDA-MB-231 cells
T1 sequence (looked up): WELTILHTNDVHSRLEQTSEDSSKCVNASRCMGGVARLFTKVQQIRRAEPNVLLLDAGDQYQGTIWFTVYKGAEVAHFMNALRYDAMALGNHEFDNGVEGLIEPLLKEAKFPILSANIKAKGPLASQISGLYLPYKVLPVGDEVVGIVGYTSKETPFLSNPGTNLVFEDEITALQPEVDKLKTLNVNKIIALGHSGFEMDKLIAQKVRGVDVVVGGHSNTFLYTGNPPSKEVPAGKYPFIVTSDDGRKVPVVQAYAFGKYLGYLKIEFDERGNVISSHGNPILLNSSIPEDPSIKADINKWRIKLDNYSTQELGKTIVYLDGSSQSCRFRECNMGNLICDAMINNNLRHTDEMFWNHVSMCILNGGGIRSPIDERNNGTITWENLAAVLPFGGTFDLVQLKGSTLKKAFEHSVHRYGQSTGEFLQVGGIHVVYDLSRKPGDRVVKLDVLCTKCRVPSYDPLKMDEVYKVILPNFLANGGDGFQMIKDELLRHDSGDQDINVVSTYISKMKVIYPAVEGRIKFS

[2] = molecular target: T1, human NT5E expressed on MDA-MB-231 cells (human); assay: flow cytometry on MDA-MB-231 cells, no ATP
[3] = molecular target: T1, human NT5E expressed on MDA-MB-231 cells (human); assay: flow cytometry on MDA-MB-231 cells, ATP-free
[4] = molecular target: T1, human NT5E expressed on MDA-MB-231 cells (human); assay: flow cytometry on MDA-MB-231 cells, fixed 1 uM ATP
[5] = molecular target: T1, human NT5E expressed on MDA-MB-231 cells (human); assay: flow cytometry on MDA-MB-231 cells, fixed 5 uM ATP
[6] = molecular target: T1, human NT5E expressed on MDA-MB-231 cells (human); assay: flow cytometry on MDA-MB-231 cells, ATP-free or 1 mM ATP
[7] = molecular target: T1, human NT5E expressed on MDA-MB-231 cells (human); assay: flow cytometry on MDA-MB-231 cells, fixed 10 uM ATP
[8] = molecular target: T1, human NT5E expressed on MDA-MB-231 cells (human); assay: flow cytometry on MDA-MB-231 cells, fixed 0.1 uM ATP
[9] = molecular target: T1, human NT5E expressed on MDA-MB-231 cells (human); assay: flow cytometry on MDA-MB-231 cells, fixed 100 uM ATP
[10] = molecular target: T1, human NT5E expressed on MDA-MB-231 cells (human); assay: flow cytometry on MDA-MB-231 cells, fixed nucleotide concentrations
[11] = molecular target: T1, human NT5E expressed on MDA-MB-231 cells (human); assay: flow cytometry on MDA-MB-231 cells with fixed ADP, MFI normalised to Medi9447 IgG; Fab concentration not given
[12] = molecular target: T1, human NT5E expressed on MDA-MB-231 cells (human); assay: flow cytometry on MDA-MB-231 cells with fixed AMP, MFI normalised to Medi9447 IgG; Fab concentration not given
[13] = molecular target: T1, human NT5E expressed on MDA-MB-231 cells (human); assay: flow cytometry on MDA-MB-231 cells with fixed ATP, MFI normalised to Medi9447 IgG; Fab concentration not given
[14] = molecular target: T1, human NT5E expressed on MDA-MB-231 cells (human); assay: flow cytometry on MDA-MB-231 cells with fixed AMPCP, MFI normalised to Medi9447 IgG; Fab concentration not given
[15] = molecular target: T1, human NT5E expressed on MDA-MB-231 cells (human); assay: flow cytometry on MDA-MB-231 cells with fixed ATP-γ-S, MFI normalised to Medi9447 IgG; Fab concentration not given
[16] = molecular target: T1, human NT5E expressed on MDA-MB-231 cells (human); assay: flow cytometry on MDA-MB-231 cells with fixed adenosine, MFI normalised to Medi9447 IgG; Fab concentration not given
[17] = molecular target: T2, NT5E dimer in closed state (cryo-EM complex) (Homo sapiens (Human)) (UniProt P21589); assay: cryo-EM structure of the complex
T2 sequence: T1 sequence (looked up) with T350A, M353T

Measured: binding

B1: 1789 Fab (Fab, V domains shown)
VH: EVQLVESGGGLVQPGGSLRLSCAASGFNVSYSSIHWVRQAPGKGLEWVASISSSSGYTYYADSVKGRFTISADTSKNTAYLQMNSLRAEDTAVYYCARNYWGWYPFYYFAFDYWGQGTLVTV
VL: DIQMTQSPSSLSASVGDRVTITCRASQSVSSAVAWYQQKPGKAPKLLIYSASSLYSGVPSRFSGSRSGTDFTLTISSLQPEDFATYYCQQGWDYPITFGQGTKVEIKR
not listed: [17]
binds: all other assays above

B2: 1789 AM32 Fab (Fab, V domains shown)
VH: B1 VH with S50R, S52R, S53G, S54N, S55E, Y57D
VL: B1 VL
binds: [17]
